For 6 molecules, binding results are on record in patent publication US20170320956A1.

Sequences of proteins named here, by UniProt entry; tags and fusion partners are left off. A change or cut given only in a name is not applied to a line headed by its entry. A line that says so, or that is headed by a name, gives the form on record, which may keep a tag or linker.
recombinant cynomolgus monkey LIGHT, FLAG-tagged extracellular domain (cynomolgus (Macaca fascicularis)) (E9NVF7, form named): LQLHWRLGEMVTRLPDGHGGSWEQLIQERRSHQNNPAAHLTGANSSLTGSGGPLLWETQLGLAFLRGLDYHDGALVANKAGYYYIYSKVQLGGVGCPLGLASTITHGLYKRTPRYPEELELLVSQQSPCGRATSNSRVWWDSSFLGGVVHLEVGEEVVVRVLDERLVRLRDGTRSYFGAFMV

Test [1] deals with recombinant cynomolgus monkey LIGHT, FLAG-tagged extracellular domain (cynomolgus (Macaca fascicularis)) (UniProt E9NVF7). The experiment in a line: SPR. Background: In SPR one partner is held on a chip, and binding of the other changes the refractive index at the surface.
Test [2] has the same target. The experiment in a line: SPR ProteOn, mAb captured on anti-human IgG, 25 C, apparent affinity.
For test [3] the target is unchanged. Briefly: SPR ProteOn, mAb captured on anti-human IgG, 37 C.
Test [4] has the same target. The experiment in a line: SPR ProteOn, mAb captured on anti-mouse IgG, LIGHT 256 nM, 25 C, apparent affinity.

No constants are given. Whether binding was seen depends on the method and setting. Some entries that bind do so weakly or less than the wild type.

B1: 01C02 in human IgG4(PE) format (antibody, V domains shown)
VH: QVQLVQSGAEVQKPGASVMVSCKASGYTFTYYGISWVRQAPGQGLEWMGWISANSGNTNYAQKFQGRVTMTTDTSTNTAYMELRSLRTDDTAVYYCAKGGVAVLEYWGQGTLVTVSS
VL: DIQLTQSPSFLSASVGDRVTITCWASQGISSYLAWYQQKPGKAPNLLIYVASTLQSGVPSRFSGSGSGTEFTLTISSLQPEDFATYYCQQLKIYPLTFGGGTKVEIK
For B1, the binding result in test [1], in test [2] and in test [3] was “binds” each time.

B2: 98C07 in human IgG4(PE) format (antibody, V domains shown)
VH: QVQLVESGGGLVKPGGSLRLSCAASGFTFSDYYMSWIRQAPGKGLEWVSYISRSSFIYYSESVKGRFTISRDNAKNSLYLQMNSLRAEDTAVYYCARWELSPFDYWGQGTLVTVSS
VL: DIQMTQSPSSLSASVGDRVTITCRASQGISNYLAWFQQKPGKAPKSLIYAASSLQSGVPSKFSGSGSGTDFTLTISSLQPEDFATYFCQQYNTYPFTFGPGTKVDIK
As to B2, the binding entry in test [1] is reported as “binds”.

B3: 31A10 in human IgG4(PE) format (antibody, V domains shown)
VH: QVQLQESGPGLVKPSGTLSLTCAVSGGSISSINWWNWVRQPPGKGLEWIGEVSHSGITNYNPSLKSRVTMSVDKAKNQFSLKLNSVTAADTAVYYCARERAVADYHGMDVWGQGTTVTVSS
VL: AIQLTQSPSSLSASVGDRVTITCRASQGISSALAWFQQKPGKPPKLLIFDASDLESGVSSRFSGSGSGTDFTLTISSLQPGDFATYYCQQFNSYPITFGQGTRLEIK
Turning to B3, the binding entry in test [1] and in test [3] was “binds” in each case.

B4: 31A10 (purified from hybridoma supernatant) (antibody, V domains shown)
VH: B3 VH
VL: B3 VL
Regarding B4, the binding entry in test [4] is on record as “binds”.

B5: 13H04 in human IgG4(PE) format (antibody, V domains shown)
VH: QVQLVQSGAEVKKPGASVKVSCKASGYTFTSYGISWVRQAPGQGLEWMGWISAHNANTNYAQKLQGRVTMTTDTSTSTAYMELRSLRSDDTAMYYCARLYRNWFDPWGQGTLVTVSS
VL: QSALTQPASVSGSPGQSITISCTGTSSDVGGYNYVSWYQQHPGKAPKLMIYDVSKRPSGVSNRFSGSKSGNTASLTISGLQAEDEADYYCCSYAGSSTLLFGGGTKLTVL
B5: the binding result in test [1] is listed as “binds”.

B6: 01C06 in human IgG4(PE) format (antibody, V domains shown)
VH: QVQLVESGGGLVKPGGSLRLSCAASGFTFSDYYMNWIRQAPGKGLEWIADISSRDNTIYYADSVKGRFTISRDNAKNSLYLQMNSLRAEDTAVYYCARERGFGDYFGMDVWGQGTTVTVSS
VL: AIQLTQSPSSLSASVGDRVTIACRASQDISSALAWFRQTPGKTPKLLIYDASSLESGVPSRFLGSGSGTDFTLTISSLQPEDFAIYYCQQFNTYPLTFGGGTKVEIK
With B6, the binding entry in test [2] is listed as “binds”.
